Here are results for one compound from patent publication US20110009345A1, “Food ingredient comprising functional peptide” (priority 2009, published 2011).

Each structure is given as a SMILES string.

The test system of the data set is Sarcoma 180. The following applies: female Swiss-Webster mice, by gavage for eleven days, compared with control.

Regarding `N=C(N)NCCC[C@H](NC(=O)[C@H](CO)NC(=O)CNC(=O)[C@@H](N)Cc1ccc(O)cc1)C(=O)N[C@@H](CO)C(=O)O` [peptide, tyrosine-glycine-serine-arginine-serine], the “toxicity judged by increase of weight” value was “nontoxic”.
